The other results are listed elsewhere or left out. Single values of this set are uncertain.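 Many melting curves are irregular; where none melted, Tm was taken as 64 °C.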
Compound: CCc1cnccc1C(=O)Nc1cc2c(cc1F)NC(=O)CC2
Assay: melting temperature shift (DMSO Tm minus MBE1-treated Tm) in cellular thermal proteome profiling; higher = less thermal stabilization by MBE1 (negative = stabilized by MBE1)
Conditions: A375; MBE1 concentration: 100 nM

Chains of the proteins cited; added tags and fusions are not shown. Lines headed by an entry give the natural chain unless they say otherwise; changes in a name come on top.
UniProt Q14669: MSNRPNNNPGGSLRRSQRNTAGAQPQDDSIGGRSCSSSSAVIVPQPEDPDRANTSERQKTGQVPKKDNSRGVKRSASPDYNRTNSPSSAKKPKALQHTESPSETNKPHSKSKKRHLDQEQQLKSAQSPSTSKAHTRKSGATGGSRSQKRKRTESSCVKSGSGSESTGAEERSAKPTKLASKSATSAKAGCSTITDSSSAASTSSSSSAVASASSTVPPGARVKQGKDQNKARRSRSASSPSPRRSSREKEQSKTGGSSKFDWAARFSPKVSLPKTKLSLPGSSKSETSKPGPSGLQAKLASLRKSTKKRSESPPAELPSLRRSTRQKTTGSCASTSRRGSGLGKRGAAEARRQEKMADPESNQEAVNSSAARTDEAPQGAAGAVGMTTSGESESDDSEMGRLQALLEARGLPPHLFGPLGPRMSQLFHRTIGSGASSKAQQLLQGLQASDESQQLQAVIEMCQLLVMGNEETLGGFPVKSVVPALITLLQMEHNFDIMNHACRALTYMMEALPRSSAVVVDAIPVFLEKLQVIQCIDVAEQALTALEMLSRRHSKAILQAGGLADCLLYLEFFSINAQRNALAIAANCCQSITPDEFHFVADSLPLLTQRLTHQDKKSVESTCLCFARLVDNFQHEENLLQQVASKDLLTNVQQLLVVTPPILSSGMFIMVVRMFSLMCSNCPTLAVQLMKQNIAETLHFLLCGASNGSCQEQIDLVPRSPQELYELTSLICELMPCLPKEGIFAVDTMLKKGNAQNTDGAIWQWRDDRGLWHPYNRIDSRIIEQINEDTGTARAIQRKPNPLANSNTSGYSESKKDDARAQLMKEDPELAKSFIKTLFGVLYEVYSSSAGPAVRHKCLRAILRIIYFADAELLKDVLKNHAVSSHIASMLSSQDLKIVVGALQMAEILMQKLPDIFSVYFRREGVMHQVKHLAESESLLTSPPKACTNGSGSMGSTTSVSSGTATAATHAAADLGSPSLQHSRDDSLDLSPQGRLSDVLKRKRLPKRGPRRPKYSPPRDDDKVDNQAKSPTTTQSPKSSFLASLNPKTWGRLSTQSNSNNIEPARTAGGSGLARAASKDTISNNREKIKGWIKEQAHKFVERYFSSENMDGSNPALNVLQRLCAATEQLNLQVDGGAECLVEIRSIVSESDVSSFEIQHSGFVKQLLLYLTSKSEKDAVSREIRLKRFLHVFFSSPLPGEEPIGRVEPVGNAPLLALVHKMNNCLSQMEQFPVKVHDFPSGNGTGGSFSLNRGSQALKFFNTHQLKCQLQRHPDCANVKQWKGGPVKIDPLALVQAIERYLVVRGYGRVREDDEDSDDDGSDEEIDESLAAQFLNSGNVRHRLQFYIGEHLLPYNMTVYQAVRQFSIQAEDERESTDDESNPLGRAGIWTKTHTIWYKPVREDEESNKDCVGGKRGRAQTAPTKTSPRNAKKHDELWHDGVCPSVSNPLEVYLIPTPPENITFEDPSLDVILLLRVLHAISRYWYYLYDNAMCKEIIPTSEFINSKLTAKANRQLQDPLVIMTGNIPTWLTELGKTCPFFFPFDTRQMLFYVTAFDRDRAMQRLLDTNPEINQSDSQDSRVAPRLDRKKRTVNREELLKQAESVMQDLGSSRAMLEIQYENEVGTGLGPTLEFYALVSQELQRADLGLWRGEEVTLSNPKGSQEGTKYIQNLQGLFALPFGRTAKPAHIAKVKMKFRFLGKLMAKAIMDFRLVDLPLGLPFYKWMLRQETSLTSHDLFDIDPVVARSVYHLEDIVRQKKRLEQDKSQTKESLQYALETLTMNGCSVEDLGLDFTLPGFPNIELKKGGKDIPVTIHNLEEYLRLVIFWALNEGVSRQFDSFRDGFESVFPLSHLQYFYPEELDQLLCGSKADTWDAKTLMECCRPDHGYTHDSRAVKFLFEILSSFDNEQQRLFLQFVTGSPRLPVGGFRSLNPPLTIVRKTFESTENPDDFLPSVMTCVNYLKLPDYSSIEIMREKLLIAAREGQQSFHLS
UniProt Q13503: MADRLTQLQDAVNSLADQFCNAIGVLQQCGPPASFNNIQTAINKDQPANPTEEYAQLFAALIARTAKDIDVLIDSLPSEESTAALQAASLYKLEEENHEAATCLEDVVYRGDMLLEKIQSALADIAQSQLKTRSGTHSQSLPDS
UniProt Q13362, whole entry, looked up: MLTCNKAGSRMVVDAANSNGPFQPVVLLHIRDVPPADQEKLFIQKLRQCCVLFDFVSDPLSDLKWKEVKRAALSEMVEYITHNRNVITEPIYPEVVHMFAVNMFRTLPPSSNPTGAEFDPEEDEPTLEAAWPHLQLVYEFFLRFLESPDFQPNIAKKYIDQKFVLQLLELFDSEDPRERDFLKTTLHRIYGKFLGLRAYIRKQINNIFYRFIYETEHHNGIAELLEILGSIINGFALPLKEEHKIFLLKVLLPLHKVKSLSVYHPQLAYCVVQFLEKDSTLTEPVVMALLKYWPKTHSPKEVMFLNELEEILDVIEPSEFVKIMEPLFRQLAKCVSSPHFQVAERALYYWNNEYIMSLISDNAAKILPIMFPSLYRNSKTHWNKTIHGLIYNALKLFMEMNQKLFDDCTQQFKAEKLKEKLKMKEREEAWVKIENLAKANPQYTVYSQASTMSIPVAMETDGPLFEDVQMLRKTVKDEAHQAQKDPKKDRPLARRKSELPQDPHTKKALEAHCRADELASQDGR
UniProt Q13233: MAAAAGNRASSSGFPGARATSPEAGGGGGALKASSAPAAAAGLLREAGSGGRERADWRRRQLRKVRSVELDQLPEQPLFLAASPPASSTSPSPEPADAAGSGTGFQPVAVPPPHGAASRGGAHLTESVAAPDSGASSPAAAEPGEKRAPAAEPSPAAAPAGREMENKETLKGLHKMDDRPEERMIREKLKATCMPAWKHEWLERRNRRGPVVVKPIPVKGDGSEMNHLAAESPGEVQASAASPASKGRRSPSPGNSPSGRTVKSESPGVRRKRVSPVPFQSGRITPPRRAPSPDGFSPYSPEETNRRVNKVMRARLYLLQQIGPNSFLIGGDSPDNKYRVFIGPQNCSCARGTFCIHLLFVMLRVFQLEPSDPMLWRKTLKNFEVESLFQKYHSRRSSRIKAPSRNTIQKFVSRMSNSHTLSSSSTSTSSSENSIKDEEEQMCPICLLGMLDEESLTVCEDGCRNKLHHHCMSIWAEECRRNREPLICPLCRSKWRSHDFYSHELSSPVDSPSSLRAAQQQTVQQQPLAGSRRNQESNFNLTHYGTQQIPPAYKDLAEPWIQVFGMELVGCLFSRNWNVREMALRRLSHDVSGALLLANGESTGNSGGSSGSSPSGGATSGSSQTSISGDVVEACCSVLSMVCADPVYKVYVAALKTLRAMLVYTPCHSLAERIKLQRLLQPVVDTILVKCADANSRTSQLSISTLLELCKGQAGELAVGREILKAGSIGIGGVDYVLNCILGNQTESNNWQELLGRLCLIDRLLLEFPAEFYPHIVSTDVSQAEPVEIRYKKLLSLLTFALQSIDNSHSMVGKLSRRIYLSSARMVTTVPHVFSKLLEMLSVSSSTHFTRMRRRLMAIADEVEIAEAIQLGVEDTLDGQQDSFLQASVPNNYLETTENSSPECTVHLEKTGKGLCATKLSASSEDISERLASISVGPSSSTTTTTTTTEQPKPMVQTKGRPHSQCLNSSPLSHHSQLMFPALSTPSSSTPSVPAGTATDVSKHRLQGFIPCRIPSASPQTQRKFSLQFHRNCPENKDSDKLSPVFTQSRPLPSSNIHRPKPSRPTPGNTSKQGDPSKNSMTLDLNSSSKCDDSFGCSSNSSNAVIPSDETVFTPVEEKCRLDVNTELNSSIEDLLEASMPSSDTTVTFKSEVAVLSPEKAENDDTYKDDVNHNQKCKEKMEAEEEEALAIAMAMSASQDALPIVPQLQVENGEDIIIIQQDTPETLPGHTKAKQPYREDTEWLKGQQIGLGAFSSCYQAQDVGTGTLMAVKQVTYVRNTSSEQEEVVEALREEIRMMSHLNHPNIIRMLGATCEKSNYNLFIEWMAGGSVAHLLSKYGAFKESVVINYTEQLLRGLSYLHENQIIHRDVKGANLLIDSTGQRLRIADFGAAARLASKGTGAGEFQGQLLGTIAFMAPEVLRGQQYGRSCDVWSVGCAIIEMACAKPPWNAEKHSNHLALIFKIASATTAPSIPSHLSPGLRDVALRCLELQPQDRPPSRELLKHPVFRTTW
UniProt Q14697: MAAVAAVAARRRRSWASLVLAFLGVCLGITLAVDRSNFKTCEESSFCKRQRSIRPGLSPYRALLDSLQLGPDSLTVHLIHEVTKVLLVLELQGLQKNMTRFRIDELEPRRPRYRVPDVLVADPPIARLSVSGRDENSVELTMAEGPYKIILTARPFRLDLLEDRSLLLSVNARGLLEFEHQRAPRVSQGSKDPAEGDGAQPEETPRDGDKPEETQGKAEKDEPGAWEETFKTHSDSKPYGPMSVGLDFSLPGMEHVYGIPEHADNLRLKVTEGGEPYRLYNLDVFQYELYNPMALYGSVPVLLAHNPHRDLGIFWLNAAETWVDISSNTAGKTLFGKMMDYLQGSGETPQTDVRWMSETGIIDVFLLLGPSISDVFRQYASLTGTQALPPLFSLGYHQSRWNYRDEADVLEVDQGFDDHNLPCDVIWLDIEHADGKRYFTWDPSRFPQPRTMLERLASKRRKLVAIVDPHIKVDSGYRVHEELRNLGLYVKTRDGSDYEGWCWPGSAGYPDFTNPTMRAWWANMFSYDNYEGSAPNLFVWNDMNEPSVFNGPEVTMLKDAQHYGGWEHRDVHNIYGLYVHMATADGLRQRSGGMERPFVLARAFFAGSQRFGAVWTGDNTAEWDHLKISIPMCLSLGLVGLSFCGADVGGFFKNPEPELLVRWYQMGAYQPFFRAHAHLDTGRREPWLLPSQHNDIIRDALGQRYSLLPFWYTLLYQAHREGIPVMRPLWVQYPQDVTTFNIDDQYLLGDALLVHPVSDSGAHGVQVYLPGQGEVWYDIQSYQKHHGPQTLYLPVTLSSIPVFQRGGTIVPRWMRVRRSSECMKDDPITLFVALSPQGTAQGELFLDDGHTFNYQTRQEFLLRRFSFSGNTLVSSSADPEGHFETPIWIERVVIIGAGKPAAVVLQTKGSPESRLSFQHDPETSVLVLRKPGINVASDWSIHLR
UniProt Q14683: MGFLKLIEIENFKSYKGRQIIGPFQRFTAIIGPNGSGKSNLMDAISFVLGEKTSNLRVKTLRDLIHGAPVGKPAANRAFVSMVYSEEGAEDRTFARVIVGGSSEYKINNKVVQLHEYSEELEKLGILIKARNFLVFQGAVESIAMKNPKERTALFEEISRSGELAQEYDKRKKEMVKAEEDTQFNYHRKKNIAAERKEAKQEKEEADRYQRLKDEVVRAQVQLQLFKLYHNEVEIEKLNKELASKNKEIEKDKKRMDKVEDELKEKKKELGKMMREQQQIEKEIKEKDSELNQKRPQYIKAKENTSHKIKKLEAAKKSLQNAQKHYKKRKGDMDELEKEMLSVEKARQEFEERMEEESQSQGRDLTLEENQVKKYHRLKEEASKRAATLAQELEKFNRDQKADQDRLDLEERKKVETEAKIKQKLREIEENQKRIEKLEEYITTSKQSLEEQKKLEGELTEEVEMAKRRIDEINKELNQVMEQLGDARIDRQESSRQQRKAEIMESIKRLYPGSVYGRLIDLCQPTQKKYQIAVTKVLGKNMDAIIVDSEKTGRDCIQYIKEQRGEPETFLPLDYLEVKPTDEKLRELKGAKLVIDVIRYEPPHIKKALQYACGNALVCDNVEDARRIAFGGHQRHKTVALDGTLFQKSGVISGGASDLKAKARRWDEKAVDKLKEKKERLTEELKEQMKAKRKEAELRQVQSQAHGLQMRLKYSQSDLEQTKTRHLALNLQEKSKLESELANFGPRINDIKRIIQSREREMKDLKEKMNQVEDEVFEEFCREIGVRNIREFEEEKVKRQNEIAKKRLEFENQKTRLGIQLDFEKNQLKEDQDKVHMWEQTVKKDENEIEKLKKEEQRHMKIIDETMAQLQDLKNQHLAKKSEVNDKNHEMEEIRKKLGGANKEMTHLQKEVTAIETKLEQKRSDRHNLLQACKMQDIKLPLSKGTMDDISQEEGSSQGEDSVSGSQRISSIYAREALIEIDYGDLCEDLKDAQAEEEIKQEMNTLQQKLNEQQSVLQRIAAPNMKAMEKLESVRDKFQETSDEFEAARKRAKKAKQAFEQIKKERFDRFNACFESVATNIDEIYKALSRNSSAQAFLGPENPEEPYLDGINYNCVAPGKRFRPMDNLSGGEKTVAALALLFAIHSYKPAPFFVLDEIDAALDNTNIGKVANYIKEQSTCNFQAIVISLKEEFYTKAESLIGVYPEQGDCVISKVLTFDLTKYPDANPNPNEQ
UniProt Q14696: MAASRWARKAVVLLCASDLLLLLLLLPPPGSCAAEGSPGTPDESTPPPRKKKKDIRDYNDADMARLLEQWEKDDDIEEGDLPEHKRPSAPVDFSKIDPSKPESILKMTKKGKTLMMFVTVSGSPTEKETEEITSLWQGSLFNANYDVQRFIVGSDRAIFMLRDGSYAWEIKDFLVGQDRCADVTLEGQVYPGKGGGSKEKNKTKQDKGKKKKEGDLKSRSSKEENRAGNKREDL

Going from DYNC1H1 (UniProt Q14204) to PAK2 (UniProt Q13177), the melting temperature shift falls from 0.104 °C to -1 °C.

First: UniProt Q14119
Second: UniProt Q14004
The melting temperature shift of the first is lower: -1.97 °C for the first, -0.417 °C for the second.

Compared with TRIP12 (UniProt Q14669), UniProt Q14938 is higher in melting temperature shift: -0.416 °C for the first, 0.148 °C for the second.

Going from GINS1 (UniProt Q14691) to CBLB (UniProt Q13191), the melting temperature shift falls from 0.666 °C to -0.00611 °C.

First: PPFIA1 (UniProt Q13136)
Second: SNTB2 (UniProt Q13425)
The melting temperature shift of the first is lower: -0.254 °C for the first, -0.0256 °C for the second.

First: UniProt Q13503
Second: BOP1 (UniProt Q14137)
The melting temperature shift of the first is higher: 1.32 °C for the first, -4.07 °C for the second.

First: PPP2R5C (UniProt Q13362)
Second: GOLGB1 (UniProt Q14789)
The melting temperature shift of the first is higher: 1.96 °C for the first, -1.1 °C for the second.

Compared with ITPR3 (UniProt Q14573), UniProt Q14141 is higher in melting temperature shift: -0.607 °C for the first, 0.998 °C for the second.

First: PLD1 (UniProt Q13393)
Second: FLOT2 (UniProt Q14254)
The melting temperature shift of the first is higher: -2.25 °C for the first, -2.37 °C for the second.

First: MAP3K1 (UniProt Q13233)
Second: PDCL (UniProt Q13371)
The melting temperature shift of the first is lower: -3.14 °C for the first, -0.0855 °C for the second.

Going from MTMR3 (UniProt Q13615) to GANAB (UniProt Q14697), the melting temperature shift falls from 0.25 °C to -1.02 °C.

Going from THOC5 (UniProt Q13769) to TTLL12 (UniProt Q14166), the melting temperature shift falls from 0.488 °C to -0.404 °C.

First: PKD2 (UniProt Q13563)
Second: NAE1 (UniProt Q13564)
The melting temperature shift of the first is lower: -0.904 °C for the first, 0.678 °C for the second.

Compared with KCNAB2 (UniProt Q13303), NFYC (UniProt Q13952) is higher in melting temperature shift: -8.7 °C for the first, -0.396 °C for the second.

First: SMC1A (UniProt Q14683)
Second: KANK1 (UniProt Q14678)
The melting temperature shift of the first is higher: 0.0855 °C for the first, -0.249 °C for the second.

Going from UniProt Q14686 to UniProt Q13077, the melting temperature shift rises from -1.63 °C to -1.36 °C.

Going from GALE (UniProt Q14376) to NNT (UniProt Q13423), the melting temperature shift rises from -0.512 °C to -0.443 °C.

Going from MESDC2 (UniProt Q14696) to IK (UniProt Q13123), the melting temperature shift rises from -0.756 °C to -0.292 °C.

With CTBP1 (UniProt Q13363) the melting temperature shift was -1.27 °C.

Same assay, conditions: A375; MBE1 concentration: 1 uM

Going from DYNC1H1 (UniProt Q14204) to PAK2 (UniProt Q13177), the melting temperature shift falls from 0.605 °C to -0.168 °C.

First: UniProt Q14119
Second: UniProt Q14004
The melting temperature shift of the first is lower: 0.153 °C for the first, 0.995 °C for the second.

Compared with TRIP12 (UniProt Q14669), UniProt Q14938 is higher in melting temperature shift: -0.288 °C for the first, 1.31 °C for the second.

Compared with GINS1 (UniProt Q14691), CBLB (UniProt Q13191) is lower in melting temperature shift: 0.629 °C for the first, 0.353 °C for the second.

Compared with PPFIA1 (UniProt Q13136), SNTB2 (UniProt Q13425) is lower in melting temperature shift: 0.108 °C for the first, -0.165 °C for the second.

Compared with UniProt Q13503, BOP1 (UniProt Q14137) is lower in melting temperature shift: 5.29 °C for the first, -2.87 °C for the second.

First: PPP2R5C (UniProt Q13362)
Second: GOLGB1 (UniProt Q14789)
The melting temperature shift of the first is higher: 1.45 °C for the first, -0.678 °C for the second.

Compared with ITPR3 (UniProt Q14573), UniProt Q14141 is higher in melting temperature shift: -0.395 °C for the first, 1.2 °C for the second.

First: PLD1 (UniProt Q13393)
Second: FLOT2 (UniProt Q14254)
The melting temperature shift of the first is higher: -0.567 °C for the first, -0.651 °C for the second.

First: MAP3K1 (UniProt Q13233)
Second: PDCL (UniProt Q13371)
The melting temperature shift of the first is higher: 0.415 °C for the first, -0.855 °C for the second.

Going from MTMR3 (UniProt Q13615) to GANAB (UniProt Q14697), the melting temperature shift falls from 0.989 °C to -0.228 °C.

Compared with THOC5 (UniProt Q13769), TTLL12 (UniProt Q14166) is lower in melting temperature shift: 0.305 °C for the first, -0.384 °C for the second.

Compared with PKD2 (UniProt Q13563), NAE1 (UniProt Q13564) is higher in melting temperature shift: -0.25 °C for the first, 0.519 °C for the second.

First: KCNAB2 (UniProt Q13303)
Second: NFYC (UniProt Q13952)
The melting temperature shift of the first is lower: -3.08 °C for the first, -0.782 °C for the second.

Compared with SMC1A (UniProt Q14683), KANK1 (UniProt Q14678) is lower in melting temperature shift: 0.464 °C for the first, -0.103 °C for the second.

Going from UniProt Q14686 to UniProt Q13077, the melting temperature shift rises from -0.513 °C to 0.745 °C.

First: GALE (UniProt Q14376)
Second: NNT (UniProt Q13423)
The melting temperature shift of the first is higher: 0.482 °C for the first, -0.355 °C for the second.

First: MESDC2 (UniProt Q14696)
Second: IK (UniProt Q13123)
The melting temperature shift of the first is higher: 0.733 °C for the first, -0.0612 °C for the second.

With CTBP1 (UniProt Q13363) the melting temperature shift was 1.2 °C.

Reference: the supplement of paper PMC12595434, “Development of retinoid nuclear receptor pathway antagonists through targeting aldehyde dehydrogenase 1A3” (iScience, 2025)
